Laboratory results from the supplement of paper PMC12819154, “High-throughput peptide-centric local stability assay extends protein–ligand identification to membrane proteins, tissues and bacteria” (Nature Structural & Molecular Biology, 2025).
The list shows a part of the results. Small differences around the control level are noise.

Sequences of proteins named here, by UniProt entry; tags and fusion partners are left off. A change or cut given only in a name is not applied to a line headed by its entry.
UniProt Q9BWT6: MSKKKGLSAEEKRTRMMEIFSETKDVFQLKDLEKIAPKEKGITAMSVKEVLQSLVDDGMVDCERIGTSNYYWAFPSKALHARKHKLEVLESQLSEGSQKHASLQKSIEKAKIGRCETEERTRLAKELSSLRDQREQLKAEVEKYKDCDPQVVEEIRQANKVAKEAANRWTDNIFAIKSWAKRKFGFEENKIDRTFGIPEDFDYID
UniProt Q9H0C5: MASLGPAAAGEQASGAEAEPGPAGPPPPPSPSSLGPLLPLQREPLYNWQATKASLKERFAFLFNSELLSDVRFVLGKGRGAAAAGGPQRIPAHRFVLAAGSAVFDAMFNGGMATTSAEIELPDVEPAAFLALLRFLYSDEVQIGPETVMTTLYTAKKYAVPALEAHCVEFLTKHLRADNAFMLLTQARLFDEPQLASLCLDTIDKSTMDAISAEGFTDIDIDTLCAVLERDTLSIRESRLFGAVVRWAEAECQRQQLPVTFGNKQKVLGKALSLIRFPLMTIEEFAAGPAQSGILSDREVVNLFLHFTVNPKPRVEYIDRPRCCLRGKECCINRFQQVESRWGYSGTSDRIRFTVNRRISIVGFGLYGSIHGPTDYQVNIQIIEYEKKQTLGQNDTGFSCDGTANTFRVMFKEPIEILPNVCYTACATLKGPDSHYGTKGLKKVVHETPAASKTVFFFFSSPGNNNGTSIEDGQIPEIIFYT
UniProt Q9GZX5: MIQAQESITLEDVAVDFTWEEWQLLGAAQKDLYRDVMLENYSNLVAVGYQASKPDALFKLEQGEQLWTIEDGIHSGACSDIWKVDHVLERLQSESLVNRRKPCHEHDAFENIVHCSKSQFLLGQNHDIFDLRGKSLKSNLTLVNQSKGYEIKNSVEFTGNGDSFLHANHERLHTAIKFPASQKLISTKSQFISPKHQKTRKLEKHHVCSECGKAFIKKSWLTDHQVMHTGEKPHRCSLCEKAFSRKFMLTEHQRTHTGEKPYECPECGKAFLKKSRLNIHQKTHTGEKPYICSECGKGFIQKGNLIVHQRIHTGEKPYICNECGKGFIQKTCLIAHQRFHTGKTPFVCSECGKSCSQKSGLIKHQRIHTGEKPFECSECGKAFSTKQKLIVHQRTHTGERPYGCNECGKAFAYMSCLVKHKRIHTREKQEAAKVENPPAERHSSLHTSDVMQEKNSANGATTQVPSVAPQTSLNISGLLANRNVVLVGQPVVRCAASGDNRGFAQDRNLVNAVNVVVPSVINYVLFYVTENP
UniProt Q9GZY8: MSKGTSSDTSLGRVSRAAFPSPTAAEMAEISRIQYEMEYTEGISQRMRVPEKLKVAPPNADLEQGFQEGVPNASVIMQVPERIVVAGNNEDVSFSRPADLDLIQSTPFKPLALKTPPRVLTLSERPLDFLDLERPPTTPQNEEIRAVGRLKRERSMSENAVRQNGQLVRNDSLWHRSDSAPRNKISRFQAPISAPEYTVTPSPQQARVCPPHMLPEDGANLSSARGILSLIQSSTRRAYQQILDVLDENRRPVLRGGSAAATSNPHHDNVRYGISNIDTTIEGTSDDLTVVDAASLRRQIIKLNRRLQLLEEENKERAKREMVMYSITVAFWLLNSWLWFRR
UniProt Q9H0X4: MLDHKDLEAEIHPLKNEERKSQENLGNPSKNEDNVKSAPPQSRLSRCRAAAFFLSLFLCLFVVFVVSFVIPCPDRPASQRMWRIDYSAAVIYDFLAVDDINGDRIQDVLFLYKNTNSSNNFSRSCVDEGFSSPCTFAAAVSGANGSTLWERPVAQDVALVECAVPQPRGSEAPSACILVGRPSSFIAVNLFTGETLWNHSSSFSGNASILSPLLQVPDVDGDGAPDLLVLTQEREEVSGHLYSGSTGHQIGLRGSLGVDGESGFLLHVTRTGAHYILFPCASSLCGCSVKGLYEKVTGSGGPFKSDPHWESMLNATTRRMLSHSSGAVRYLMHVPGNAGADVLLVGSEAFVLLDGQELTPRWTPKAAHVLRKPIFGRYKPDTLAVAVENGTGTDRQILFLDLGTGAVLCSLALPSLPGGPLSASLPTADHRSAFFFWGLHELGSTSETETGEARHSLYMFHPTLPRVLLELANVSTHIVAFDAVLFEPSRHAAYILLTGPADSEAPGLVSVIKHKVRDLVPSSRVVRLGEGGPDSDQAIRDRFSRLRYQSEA
UniProt Q9H098: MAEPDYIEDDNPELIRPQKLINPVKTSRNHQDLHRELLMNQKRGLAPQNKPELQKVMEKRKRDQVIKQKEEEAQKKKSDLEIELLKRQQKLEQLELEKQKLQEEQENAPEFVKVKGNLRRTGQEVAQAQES
UniProt Q9BZR9: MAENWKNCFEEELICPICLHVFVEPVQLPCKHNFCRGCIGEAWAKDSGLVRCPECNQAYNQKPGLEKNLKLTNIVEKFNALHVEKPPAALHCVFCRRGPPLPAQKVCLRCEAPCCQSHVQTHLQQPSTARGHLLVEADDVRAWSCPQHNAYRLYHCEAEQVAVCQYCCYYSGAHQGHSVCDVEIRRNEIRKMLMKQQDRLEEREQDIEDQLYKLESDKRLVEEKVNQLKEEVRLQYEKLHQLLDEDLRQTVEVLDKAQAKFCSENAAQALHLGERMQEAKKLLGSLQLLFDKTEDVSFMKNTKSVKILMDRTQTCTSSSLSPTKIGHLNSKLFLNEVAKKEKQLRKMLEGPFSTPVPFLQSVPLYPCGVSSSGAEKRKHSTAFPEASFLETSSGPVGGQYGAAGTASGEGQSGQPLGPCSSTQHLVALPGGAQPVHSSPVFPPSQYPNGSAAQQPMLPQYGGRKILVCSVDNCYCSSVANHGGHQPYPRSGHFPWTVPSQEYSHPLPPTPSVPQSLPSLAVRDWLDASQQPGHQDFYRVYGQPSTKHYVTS
UniProt Q9H0Q0: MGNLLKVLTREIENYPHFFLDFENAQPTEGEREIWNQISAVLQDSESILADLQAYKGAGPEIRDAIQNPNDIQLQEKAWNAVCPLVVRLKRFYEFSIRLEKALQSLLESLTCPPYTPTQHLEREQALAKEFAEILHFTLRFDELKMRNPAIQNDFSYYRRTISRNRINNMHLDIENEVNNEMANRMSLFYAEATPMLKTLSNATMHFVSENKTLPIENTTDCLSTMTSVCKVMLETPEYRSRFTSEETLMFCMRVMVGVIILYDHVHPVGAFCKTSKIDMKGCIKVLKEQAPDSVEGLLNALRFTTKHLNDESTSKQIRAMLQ
UniProt Q9H1P3, whole entry: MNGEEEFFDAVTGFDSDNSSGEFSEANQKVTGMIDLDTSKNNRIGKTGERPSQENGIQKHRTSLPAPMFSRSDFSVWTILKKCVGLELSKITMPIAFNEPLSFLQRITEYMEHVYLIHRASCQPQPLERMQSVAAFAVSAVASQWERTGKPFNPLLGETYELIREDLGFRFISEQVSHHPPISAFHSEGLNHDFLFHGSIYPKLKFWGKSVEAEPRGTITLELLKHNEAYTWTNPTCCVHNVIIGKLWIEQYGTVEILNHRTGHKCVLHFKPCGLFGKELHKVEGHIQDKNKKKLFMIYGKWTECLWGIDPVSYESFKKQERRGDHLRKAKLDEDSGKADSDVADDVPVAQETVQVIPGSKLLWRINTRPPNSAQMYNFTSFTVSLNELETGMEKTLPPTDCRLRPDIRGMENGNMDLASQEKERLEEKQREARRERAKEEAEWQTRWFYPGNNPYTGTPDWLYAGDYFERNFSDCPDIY
UniProt Q9H2S9: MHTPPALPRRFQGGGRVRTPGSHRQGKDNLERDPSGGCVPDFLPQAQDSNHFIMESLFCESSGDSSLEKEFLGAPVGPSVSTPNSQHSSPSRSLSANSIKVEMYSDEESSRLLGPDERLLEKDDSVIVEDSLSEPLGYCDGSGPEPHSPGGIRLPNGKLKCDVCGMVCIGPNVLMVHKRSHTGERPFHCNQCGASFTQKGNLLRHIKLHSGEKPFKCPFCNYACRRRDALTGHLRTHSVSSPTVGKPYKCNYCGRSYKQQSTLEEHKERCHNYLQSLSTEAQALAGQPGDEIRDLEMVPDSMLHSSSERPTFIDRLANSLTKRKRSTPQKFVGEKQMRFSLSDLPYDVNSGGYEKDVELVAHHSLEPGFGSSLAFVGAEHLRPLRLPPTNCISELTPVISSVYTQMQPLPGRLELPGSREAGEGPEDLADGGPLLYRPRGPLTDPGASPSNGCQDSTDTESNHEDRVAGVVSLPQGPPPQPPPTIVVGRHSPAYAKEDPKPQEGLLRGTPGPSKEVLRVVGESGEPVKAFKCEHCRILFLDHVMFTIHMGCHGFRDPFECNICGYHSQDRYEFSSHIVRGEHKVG

What follows are targets tested with CN[C@@H]1C[C@H]2O[C@@](C)([C@@H]1OC)n1c3ccccc3c3c4c(c5c6ccccc6n2c5c31)C(=O)NC4 [staurosporine] (assay: log2 fold change of tryptic peptide abundance, ligand vs vehicle (limited proteolysis) (log2 ratio); higher = more trypsin-susceptible (destabilized)). Settings: ligand concentration: 20 uM; sample: K562 cleared lysate; digestion: 4 min, 22 C (HT-PELSA RT4min, Orbitrap Astral).

With “MND1 (peptide sequence: EVLQSLVDDGMVDCER, peptide start residue: 49) (UniProt Q9BWT6)” as the target, how does the log2 fold change read?
Its log2 fold change is -0.259.

With “BTBD1 (peptide sequence: EVVNLFLHFTVNPKPR, peptide start residue: 299) (UniProt Q9H0C5)” as the target, how does the log2 fold change read?
The log2 fold change was -0.68.

Which log2 fold change does the source give for “UniProt Q9GZX5 (peptide sequence: NVVLVGQPVVR, peptide start residue: 483)” here?
Its log2 fold change is -0.249.

How did the log2 fold change turn out when “MFF (peptide sequence: GGSAAATSNPHHDNVR, peptide start residue: 256) (UniProt Q9GZY8)” was run?
The log2 fold change was 0.339.

With “UniProt Q9H0X4 (peptide sequence: KPIFGRYK, peptide start residue: 372)” as the target, how does the log2 fold change read?
Its log2 fold change is -0.0829.

How did the log2 fold change turn out when “FAM107B (peptide sequence: KSDLEIELLKR, peptide start residue: 77) (UniProt Q9H098)” was run?
The log2 fold change was 0.405.

For “MRPS26 (peptide sequence: ELMAWNQAENRR, peptide start residue: 104) (UniProt Q9BYN8)”, which log2 fold change is on record?
The log2 fold change was -0.102.

With “UniProt Q9BZR9 (peptide sequence: FCSENAAQALHLGER, peptide start residue: 261)” as the target, how does the log2 fold change read?
Its log2 fold change is -0.526.

“FAM49A (peptide sequence: AWNAVCPLVVR, peptide start residue: 78) (UniProt Q9H0Q0)” was tested. Which log2 fold change did it give?
Its log2 fold change is 0.141.

How did the log2 fold change turn out when “OSBPL2 (peptide sequence: ASCQPQPLER, peptide start residue: 120) (UniProt Q9H1P3)” was run?
The log2 fold change was 0.942.

Which log2 fold change does the source give for “IKZF4 (peptide sequence: DLEMVPDSMLHSSSERPTFIDR, peptide start residue: 294) (UniProt Q9H2S9)” here?
The log2 fold change was -0.14.
